In PMC5758568, “Cryo EM structure of intact rotary H^+-ATPase/synthase from Thermus thermophilus” (Nature Communications, 2018):

T1: E-subunit of the V/A-ATPase from Thermus thermophilus (Thermus thermophilus) (UniProt P74901)
T1 sequence: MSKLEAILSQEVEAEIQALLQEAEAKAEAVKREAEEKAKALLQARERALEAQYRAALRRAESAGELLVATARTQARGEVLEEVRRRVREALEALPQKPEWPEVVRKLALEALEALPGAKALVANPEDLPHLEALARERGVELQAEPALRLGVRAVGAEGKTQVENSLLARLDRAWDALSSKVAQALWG


Experiments:
[1] = target: T1, E-subunit of the V/A-ATPase from Thermus thermophilus (Thermus thermophilus); assay: cryo-EM structure; single particle cryo-EM of the whole V/A-ATPase in TE buffer (20 mM Tris-HCl pH 8.0, 0.1 mM EDTA) with 0.003% LMNG and 100 mM NaCl, no nucleotide added; three rotational states (5.0, 6.7, 7.5 Å), focused V1EGd map of state1 4.7 Å; crystal structures and homology models fitted by MDFF; both purified
[2] = target: a-subunit (subunit I) of the V/A-ATPase from Thermus thermophilus (Thermus thermophilus); assay: as above

binding [1] | binding [2] | Molecule
binds |  | G-subunit of the V/A-ATPase from Thermus thermophilus
 | binds | E-subunit of the V/A-ATPase from Thermus thermophilus (natural protein, V/A-type ATPase E-subunit (peripheral stalk), Thermus thermophilus; native subunit in the isolated whole enzyme; Two copies in the enzyme (two EG stalks); also called subunit E; EG stalk (with G)) MSKLEAILSQEVEAEIQALLQEAEAKAEAVKREAEEKAKALLQARERALEAQYRAALRRAESAGELLVATARTQARGEVLEEVRRRVREALEALPQKPEWPEVVRKLALEALEALPGAKALVANPEDLPHLEALARERGVELQAEPALRLGVRAVGAEGKTQVENSLLARLDRAWDALSSKVAQALWG

No constants are given. Whether binding was seen depends on the method and setting. A result given as binding can be weak or reduced; the word gives no strength.
